# Reference: publication PMC10167365
# Amino acid sequences for entries named in this document (tags omitted).
# UniProt P46934: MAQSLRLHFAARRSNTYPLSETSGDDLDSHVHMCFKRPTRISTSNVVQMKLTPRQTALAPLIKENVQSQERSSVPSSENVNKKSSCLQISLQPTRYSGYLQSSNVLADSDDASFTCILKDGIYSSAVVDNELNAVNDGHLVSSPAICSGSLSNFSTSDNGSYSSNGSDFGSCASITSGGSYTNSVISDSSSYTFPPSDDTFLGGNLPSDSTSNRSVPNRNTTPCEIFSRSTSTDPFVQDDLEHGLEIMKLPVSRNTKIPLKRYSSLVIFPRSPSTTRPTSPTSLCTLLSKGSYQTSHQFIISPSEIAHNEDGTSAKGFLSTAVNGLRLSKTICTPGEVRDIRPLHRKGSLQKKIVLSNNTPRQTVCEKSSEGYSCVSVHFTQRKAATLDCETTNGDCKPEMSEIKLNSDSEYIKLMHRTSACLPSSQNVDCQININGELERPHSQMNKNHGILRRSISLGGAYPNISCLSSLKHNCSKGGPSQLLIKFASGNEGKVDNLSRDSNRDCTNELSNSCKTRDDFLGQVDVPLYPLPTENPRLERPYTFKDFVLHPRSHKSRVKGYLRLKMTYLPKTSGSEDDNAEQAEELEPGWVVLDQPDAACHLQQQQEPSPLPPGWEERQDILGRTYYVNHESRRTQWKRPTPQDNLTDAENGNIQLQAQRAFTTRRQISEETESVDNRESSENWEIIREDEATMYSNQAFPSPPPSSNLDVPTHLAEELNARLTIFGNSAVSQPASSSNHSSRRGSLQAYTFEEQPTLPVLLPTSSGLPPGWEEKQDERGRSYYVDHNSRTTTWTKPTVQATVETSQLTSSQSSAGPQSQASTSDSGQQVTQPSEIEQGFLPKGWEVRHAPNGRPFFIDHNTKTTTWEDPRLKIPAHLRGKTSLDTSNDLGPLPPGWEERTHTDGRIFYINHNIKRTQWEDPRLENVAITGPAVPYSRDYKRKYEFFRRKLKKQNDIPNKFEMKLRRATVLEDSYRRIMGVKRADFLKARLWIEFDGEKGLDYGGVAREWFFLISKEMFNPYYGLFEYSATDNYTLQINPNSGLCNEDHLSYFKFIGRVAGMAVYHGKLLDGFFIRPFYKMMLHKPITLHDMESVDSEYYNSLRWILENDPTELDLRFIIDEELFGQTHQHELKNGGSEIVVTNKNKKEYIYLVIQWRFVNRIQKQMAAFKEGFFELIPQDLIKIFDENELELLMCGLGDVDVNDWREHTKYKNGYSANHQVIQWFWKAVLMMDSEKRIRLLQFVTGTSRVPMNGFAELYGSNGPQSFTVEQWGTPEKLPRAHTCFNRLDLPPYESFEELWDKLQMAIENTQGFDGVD
# UniProt Q01196: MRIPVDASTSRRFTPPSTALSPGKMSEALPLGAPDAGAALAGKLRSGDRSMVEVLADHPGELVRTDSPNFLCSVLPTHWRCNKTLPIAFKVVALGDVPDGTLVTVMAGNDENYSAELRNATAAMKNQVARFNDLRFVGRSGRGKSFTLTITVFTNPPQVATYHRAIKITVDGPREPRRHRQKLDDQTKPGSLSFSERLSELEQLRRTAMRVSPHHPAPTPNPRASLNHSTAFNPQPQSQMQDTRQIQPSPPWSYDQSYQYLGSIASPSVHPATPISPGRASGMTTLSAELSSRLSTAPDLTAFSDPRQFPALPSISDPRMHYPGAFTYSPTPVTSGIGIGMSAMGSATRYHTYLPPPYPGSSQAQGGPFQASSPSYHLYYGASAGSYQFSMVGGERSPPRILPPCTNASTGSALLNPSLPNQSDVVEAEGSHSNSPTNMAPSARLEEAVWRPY
# These are yes or no findings as the source states them, for the method shown. In cells and extracts the contact can be indirect. Some binding calls cover weakened binding; strength is not graded here.
# Target: Flag-labeled NEDD4 (UniProt P46934)
# Assay: co-IP; Myc-Runx1 and 3xFlag-NEDD4 co-transfected into BMSCs, 48 h; lysate in ice-cold IP buffer; antibodies against Myc or Flag, Protein A/G agarose, 4 °C; western blot
substance,measurement,value
Myc-tagged Runx1 (from UniProt Q01196 1-453),binding,binds
